Experimental data taken from PubChem BioAssay AID2551 (National Center for Advancing Translational Sciences (NCATS), 2010).
Hit rate of the full screen: of about 310,000 compounds, about 17,000 (5.5%) were called active. Inconclusive results, whose numbers are uncertain, are shown with a selection of clear calls. Calls come from the whole dose curve; as a rule, active = well fitted inhibition curve with a large enough effect; inconclusive = small, poorly fitted or top-dose-only effect, or effect the other way; inactive = no such curve, though single readings can be large or run the other way. Potencies of inconclusive entries are doubtful fits and often do not repeat.

The chains behind the UniProt entries cited, without tags or fusion partners. Where a name states a change or a piece, a line headed by the entry shows the natural chain unless it says otherwise.
UniProt P51450: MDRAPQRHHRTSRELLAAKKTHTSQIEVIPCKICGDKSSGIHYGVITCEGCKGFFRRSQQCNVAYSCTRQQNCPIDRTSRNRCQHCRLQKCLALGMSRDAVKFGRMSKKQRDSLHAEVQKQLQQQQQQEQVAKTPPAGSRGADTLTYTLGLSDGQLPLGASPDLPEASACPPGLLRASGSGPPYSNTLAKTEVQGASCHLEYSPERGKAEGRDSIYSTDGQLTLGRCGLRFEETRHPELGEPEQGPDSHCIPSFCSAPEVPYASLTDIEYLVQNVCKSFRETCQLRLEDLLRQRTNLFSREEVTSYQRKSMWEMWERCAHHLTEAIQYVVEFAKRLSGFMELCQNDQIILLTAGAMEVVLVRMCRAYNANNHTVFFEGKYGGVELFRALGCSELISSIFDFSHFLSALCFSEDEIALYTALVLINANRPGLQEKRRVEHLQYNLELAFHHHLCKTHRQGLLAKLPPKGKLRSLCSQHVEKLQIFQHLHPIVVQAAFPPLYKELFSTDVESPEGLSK

target: Nuclear receptor ROR-gamma (Mus musculus) (UniProt P51450); assay: qHTS for inhibitors of ROR gamma transcriptional activity; conditions: Drosophila S2 Gal4-RORgamma UAS-luciferase reporter, 20 h; activity change, negative = inhibition: at 53.6 µM (top of the series); note: nearly all actives have a fitted effect of over 60% in size
Procedure, shortened: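 Read-out: Photinus luciferase luminescence; inhibitors lower reporter signal. Insect Schneider cells with Gal4-ROR gamma fusion under metallothionein promoter, UAS reporter; 700 uM final copper sulfate induction, 20 hr, ambient temperature.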
% is set by controls: 0 for no effect and ±100 for the full control effect; potency is the fitted concentration of half-maximal effect.

Potency, inconclusive:
NS(=O)(=O)c1ccc(N=Nc2c(O)[nH]c3ccc(Br)cc23)cc1 31.6 µM [activator, single point]
NCCNS(=O)(=O)c1cccc2cnccc12 22.4 µM [activator, partial curve, poor fit]
Cc1cc(/C(N)=N/OC(=O)c2ccccc2Cl)no1 22.4 µM [inhibitor, single point]
COc1ccc(S(=O)(=O)N2CCSCC2)cc1 1.26 µM [inhibitor, full curve, poor fit]
CCCCCn1cnc2c(sc3nc4c(cc32)CSC(C)(C)C4)c1=O 1 µM [activator, full curve, poor fit]
O=C(Cc1ccc(F)cc1)N1CCN(c2ccc([N+](=O)[O-])cc2)CC1 15.8 µM [activator, single point]
C=CCN(c1ccccc1)S(=O)(=O)c1cc(C(=O)NC2=NCCS2)ccc1Cl 17.8 µM [inhibitor, single point]
CC(=O)Nc1cccc(C(=O)OC(C(=O)c2ccc(C)cc2)c2ccccc2)c1 (stereo unspecified) 35.5 µM [inhibitor, single point]
CCOc1c(Br)cc(C2CC(=O)Nc3cc(OC)c(OC)cc32)cc1OC (stereo unspecified) 8.91 µM [activator, partial curve]
CC(=O)c1ccc(NCC2COc3ccccc3O2)c([N+](=O)[O-])c1 (stereo unspecified) 20 µM [activator, partial curve, poor fit]
CC(CCc1ccc(O)cc1)NCc1ccc(Br)cc1 (stereo unspecified) 0.0708 µM [inhibitor, full curve, poor fit]
CSc1n[nH]c(=S)n1N 35.5 µM [inhibitor, single point]
COc1cccc(NC(=O)c2ccc(CN3CCN(c4ccccc4)CC3)cc2)c1 14.1 µM [activator, single point]
Cc1cccn2cc(CSc3ccccc3N)nc12 12.6 µM [inhibitor, single point]
CCc1ccc(-c2cc(C)no2)cc1S(=O)(=O)NCc1ccc(OC)c(OC)c1 25.1 µM [activator, single point]
Cc1ccc2[nH]c(=O)c(CN(Cc3ccccc3)C(=S)NCCCN(C)C)cc2c1 28.2 µM [inhibitor, single point]
Cc1cccc(C)c1OCCCCn1cnc2ccccc2c1=O 6.31 µM [activator, full curve]
COc1cccc(-c2nn(-c3ccccc3)cc2C(=O)n2nnc3ccccc32)c1 35.5 µM [inhibitor, single point]
CCn1c(SCC(=O)Nc2ccc(C)cc2)nnc1-c1ccc(O)cc1 35.5 µM [activator, single point]
CCC(C)(C)n1nnnc1CN1CCC(NC(=O)c2ccc(Br)cc2)CC1 10 µM [activator, partial curve]
N#Cc1ccsc1NC(=O)c1cccc(-n2cnnn2)c1 14.1 µM [activator, single point]
O=C(Nc1cccc(Cl)c1)Nc1cccc(Cl)c1 15.8 µM [activator, partial curve]
COc1ccc(S(=O)(=O)N2CCC(C(=O)NC3CCCCC3)CC2)cc1C 20 µM [activator, single point]
OCCN(Cc1nc(-c2ccc3c(c2)OCO3)no1)Cc1cccs1 20 µM [activator, single point]

Potency, active:
CCC(C)N1C(=O)N(c2cccc(Cl)c2)C(C)(O)CC1(C)C (stereo unspecified) 5.01 µM
CCc1ccc(/C=C\C(=O)N2CCc3ccccc3C2)cc1 10 µM
CSc1cccc(NC(=S)N(Cc2ccc(C)cc2)Cc2cccnc2)c1 5.01 µM
COC(=O)CC(NC(=S)NC(=O)c1ccccc1)c1ccc(Br)cc1 (stereo unspecified) 12.6 µM
COc1ccc(C(=O)CSc2cc(C)nc3nc(C)nn23)cc1OC 15.8 µM
COc1ccc(-c2nnc(NC(=O)c3ccc(S(=O)(=O)N(C)CC4CCCO4)cc3)o2)c(OC)c1 (stereo unspecified) 0.708 µM

Activity change, negative = inhibition, inactive:
CNC(=O)[C@@]1(Cc2ccccc2)C=C[C@@H](C)N1C(C)=O -11%
COc1ccc(Cl)cc1NC(=O)C/C(C)=N/NC(=O)c1ccccc1Cl 20.5% [at 1.91 µM]
O=c1[nH]c2cc3c(cc2cc1C(c1nnnn1C1CCCC1)N1CCCc2ccccc21)OCCO3 (stereo unspecified) -29.1%
COc1ccccc1Cn1c(=O)[nH]c2cccnc21 -8.92%
COc1cccc(-n2c(C)nc3cc(C(=O)O)ccc32)c1 17.8%
CC(C)Nc1nc(Cl)nc(NN(C)c2nc(N(C)C)nc(N(C)C)n2)n1 -8.28%

A stretch from further up:
Activity change, negative = inhibition, inactive:
CNC(=O)[C@@]1(Cc2ccccc2)C=C[C@@H](C)N1C(C)=O -11%
COc1ccc(Cl)cc1NC(=O)C/C(C)=N/NC(=O)c1ccccc1Cl 20.5% [at 1.91 µM]
O=c1[nH]c2cc3c(cc2cc1C(c1nnnn1C1CCCC1)N1CCCc2ccccc21)OCCO3 (stereo unspecified) -29.1%
